Results published in publication PMC11304257.
Positions count from the first letter of the chain named. These are yes or no findings as the source states them, for the method shown. Binding seen in cells or lysates may run through a third protein. Some entries that bind do so weakly or less than the wild type.

By UniProt entry, the sequences of proteins in these tests, tags left out.
UniProt P78527: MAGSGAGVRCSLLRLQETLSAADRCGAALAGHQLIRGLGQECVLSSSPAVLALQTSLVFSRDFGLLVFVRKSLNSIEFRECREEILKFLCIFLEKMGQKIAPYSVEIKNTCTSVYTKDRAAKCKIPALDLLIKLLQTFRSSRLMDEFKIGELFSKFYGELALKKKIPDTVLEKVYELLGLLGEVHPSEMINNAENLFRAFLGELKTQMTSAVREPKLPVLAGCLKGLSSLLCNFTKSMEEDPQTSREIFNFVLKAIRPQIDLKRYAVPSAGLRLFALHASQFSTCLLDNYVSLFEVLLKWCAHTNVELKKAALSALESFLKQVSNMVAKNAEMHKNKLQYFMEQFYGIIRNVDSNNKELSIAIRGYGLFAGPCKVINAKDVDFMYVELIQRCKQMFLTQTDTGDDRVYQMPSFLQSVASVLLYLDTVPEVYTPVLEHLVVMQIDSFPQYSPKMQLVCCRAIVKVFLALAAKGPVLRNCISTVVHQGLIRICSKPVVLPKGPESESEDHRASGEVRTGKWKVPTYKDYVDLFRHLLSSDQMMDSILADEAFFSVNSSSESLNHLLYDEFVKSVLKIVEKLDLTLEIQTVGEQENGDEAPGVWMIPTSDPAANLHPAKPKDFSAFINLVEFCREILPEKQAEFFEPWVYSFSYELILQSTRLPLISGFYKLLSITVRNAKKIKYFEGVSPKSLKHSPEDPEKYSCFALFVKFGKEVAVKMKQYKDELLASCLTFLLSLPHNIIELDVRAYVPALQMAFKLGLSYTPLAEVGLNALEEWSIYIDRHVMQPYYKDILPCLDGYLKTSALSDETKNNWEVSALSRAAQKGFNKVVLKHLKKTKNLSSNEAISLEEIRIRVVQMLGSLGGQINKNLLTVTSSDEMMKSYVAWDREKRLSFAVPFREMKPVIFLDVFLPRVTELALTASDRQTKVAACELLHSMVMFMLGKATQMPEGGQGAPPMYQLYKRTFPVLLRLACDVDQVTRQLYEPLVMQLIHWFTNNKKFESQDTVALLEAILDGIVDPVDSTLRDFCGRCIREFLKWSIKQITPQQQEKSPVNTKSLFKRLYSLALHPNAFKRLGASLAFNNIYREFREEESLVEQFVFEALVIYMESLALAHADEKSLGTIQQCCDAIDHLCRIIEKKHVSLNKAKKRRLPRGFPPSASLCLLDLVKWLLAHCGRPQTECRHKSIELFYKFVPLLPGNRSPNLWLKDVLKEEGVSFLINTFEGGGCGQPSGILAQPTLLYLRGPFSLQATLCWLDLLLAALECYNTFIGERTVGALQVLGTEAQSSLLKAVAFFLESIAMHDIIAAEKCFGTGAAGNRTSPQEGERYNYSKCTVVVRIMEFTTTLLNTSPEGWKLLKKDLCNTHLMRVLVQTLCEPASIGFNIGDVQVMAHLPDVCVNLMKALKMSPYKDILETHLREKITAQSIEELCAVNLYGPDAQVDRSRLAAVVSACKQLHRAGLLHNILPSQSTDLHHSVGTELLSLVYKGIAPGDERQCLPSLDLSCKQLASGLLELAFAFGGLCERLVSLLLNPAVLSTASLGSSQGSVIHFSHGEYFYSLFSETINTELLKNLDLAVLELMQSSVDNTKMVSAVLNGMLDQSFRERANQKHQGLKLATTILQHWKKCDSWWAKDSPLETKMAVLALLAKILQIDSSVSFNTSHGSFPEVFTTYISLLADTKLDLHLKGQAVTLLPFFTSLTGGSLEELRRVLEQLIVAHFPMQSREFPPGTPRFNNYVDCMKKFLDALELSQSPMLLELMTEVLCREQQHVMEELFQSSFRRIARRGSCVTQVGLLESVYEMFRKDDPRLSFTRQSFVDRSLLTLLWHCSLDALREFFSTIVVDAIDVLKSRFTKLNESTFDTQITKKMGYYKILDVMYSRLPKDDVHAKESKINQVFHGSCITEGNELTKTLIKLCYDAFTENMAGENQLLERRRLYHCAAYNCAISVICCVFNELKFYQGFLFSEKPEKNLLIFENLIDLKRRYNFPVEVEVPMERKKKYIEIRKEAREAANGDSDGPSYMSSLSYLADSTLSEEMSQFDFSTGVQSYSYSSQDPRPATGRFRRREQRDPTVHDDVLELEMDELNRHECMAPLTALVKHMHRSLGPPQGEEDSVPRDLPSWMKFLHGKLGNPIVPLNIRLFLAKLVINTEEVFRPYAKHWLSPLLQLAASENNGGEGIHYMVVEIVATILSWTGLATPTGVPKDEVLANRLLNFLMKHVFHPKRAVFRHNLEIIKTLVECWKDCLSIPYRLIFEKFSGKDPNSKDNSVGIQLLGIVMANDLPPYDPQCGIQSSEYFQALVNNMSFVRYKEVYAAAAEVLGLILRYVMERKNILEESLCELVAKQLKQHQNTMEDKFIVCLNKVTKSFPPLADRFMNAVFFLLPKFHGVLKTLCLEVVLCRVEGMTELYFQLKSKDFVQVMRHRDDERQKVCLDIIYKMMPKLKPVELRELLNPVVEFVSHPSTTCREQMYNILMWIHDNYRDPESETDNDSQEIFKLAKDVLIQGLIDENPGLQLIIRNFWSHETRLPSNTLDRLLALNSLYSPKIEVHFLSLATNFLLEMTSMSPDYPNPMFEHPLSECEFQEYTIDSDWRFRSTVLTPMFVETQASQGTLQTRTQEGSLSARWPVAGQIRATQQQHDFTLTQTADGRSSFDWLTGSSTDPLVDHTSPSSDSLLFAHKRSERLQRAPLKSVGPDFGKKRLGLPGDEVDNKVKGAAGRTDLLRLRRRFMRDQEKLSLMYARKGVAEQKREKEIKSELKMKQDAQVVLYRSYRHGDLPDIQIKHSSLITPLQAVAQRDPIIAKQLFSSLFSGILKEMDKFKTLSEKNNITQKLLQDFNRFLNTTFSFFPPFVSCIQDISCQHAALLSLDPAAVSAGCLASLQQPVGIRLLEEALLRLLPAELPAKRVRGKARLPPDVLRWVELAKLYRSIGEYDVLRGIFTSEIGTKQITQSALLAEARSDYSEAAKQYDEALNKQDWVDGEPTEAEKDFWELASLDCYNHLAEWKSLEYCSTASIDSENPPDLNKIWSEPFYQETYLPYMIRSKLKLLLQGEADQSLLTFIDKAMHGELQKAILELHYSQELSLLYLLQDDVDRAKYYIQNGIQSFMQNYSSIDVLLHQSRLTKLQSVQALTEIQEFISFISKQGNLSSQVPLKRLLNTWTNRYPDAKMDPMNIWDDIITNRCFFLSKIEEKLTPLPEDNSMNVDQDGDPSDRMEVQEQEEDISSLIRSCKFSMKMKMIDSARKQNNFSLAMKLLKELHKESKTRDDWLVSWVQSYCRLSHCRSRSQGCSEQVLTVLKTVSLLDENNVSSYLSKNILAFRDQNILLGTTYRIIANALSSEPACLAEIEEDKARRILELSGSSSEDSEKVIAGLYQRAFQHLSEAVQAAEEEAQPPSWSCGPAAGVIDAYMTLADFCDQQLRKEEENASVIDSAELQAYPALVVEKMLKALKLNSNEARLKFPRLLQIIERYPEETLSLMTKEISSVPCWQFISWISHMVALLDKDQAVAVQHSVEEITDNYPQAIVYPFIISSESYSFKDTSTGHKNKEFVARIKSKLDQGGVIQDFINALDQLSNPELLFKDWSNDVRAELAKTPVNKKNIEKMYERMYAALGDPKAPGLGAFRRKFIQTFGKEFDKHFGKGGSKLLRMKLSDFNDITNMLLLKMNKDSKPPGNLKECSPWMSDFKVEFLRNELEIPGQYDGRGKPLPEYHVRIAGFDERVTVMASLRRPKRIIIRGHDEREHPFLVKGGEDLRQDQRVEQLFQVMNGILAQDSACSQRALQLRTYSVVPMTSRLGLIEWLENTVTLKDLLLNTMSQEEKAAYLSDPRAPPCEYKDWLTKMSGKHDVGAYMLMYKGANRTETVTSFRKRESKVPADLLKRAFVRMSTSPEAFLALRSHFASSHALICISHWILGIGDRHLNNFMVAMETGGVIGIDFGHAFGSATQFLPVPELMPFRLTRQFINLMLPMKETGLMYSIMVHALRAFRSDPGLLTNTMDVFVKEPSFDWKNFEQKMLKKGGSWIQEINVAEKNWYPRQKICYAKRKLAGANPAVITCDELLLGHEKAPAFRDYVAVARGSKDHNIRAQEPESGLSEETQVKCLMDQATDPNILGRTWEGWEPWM

What was measured:
[1] = molecular target: T1, TRIM24 S523A mutant (human) (UniProt O15164); assay: co-IP; lysates of NHA/HRas^V12 cells expressing TRIM24 WT, deletion or point mutants; IP lysis buffer (20 mM Tris-HCl pH 7.5, 150 mM NaCl, 1 mM EDTA, 1% Triton X-100), 4 °C, four washes, Western blot; endogenous DNA-PK complex; some panels after NU7441 (4 µM, 24 h), Dabrafenib (40 µM, 24 h), U3 snoRNA knock-down or PHAX knock-down
T1 sequence: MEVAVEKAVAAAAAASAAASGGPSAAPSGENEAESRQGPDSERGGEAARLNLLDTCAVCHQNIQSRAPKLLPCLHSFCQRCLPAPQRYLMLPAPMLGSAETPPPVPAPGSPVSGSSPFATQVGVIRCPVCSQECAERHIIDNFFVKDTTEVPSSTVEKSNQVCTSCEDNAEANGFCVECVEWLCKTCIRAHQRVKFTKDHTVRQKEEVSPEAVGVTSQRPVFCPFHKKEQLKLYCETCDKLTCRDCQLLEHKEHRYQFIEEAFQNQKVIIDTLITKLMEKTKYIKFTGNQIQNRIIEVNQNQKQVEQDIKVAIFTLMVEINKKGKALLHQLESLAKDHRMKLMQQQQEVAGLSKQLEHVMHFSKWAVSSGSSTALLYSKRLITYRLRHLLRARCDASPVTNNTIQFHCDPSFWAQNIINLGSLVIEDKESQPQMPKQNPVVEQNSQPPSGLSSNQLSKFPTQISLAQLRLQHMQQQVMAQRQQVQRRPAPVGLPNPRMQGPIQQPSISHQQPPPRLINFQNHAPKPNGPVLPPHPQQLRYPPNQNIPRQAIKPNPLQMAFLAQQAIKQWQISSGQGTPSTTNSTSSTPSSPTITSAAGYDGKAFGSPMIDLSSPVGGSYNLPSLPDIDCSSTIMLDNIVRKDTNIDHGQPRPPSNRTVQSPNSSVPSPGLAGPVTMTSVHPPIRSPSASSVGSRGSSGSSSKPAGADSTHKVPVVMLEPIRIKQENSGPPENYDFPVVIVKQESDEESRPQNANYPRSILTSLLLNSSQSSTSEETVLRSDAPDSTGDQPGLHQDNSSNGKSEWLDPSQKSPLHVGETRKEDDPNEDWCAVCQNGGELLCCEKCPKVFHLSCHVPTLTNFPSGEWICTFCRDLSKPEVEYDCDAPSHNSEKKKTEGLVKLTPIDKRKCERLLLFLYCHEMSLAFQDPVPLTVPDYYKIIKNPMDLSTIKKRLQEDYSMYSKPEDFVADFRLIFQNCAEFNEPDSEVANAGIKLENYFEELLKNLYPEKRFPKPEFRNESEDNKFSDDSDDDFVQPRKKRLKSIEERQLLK

[2] = molecular target: T2, TRIM24 S667A mutant (human) (UniProt O15164); assay: as above
T2 sequence: T1 sequence with A523S, S667A

## DNA-dependent protein kinase catalytic subunit (DNA-PKcs) (from UniProt P78527 1-4128) (enzyme)
[1]
  binding: binds
[2]
  binding: binds
